According to US20240189291A1, “Prevention And Treatment Of Atrial Fibrillation/Flutter With Gamma-Ketoaldehyde Scavengers” (Vanderbilt University, priority 2016, published 2024):

Experiment: Oligomer formation of ANP peptides by Western analysis

## WT ANP: wild-type atrial natriuretic peptide (28 amino acids), incubated to form oligomers
PBS, 24h
  oligomer development after incubation in PBS for 24h: does not
Peptides oligomerized at 23° C. for variable time points, Western analysis
  fibrillogenesis / oligomer formation: time- and IsoLG-dependent fibrillogenesis
